Data reported in PubChem BioAssay AID504444 (National Center for Advancing Translational Sciences (NCATS), 2011).
About 7,500 (2.1%) of roughly 360,000 compounds were called active. Inconclusive results, whose numbers are uncertain, are shown with a selection of clear calls. Calls come from the whole dose curve; as a rule, active = well fitted inhibition curve with a large enough effect; inconclusive = small, poorly fitted or top-dose-only effect, or effect the other way; inactive = flat fitted curve, though single readings scatter. Where the call is inconclusive, the potency comes from a doubtful curve fit.

Experiment: Nrf2 qHTS screen for inhibitors; note: nearly all actives have a fitted effect of over 60% in size
Details: A549 ARE-Fluc reporter, luciferase luminescence, 18-24 h; series mostly up to 46 µM
In short: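 Cells were seeded and rested 2 h, then exposed to compounds for 18-24 h. CellTiter-Fluor was read first as a viability measure. BugLite was added 15 min before the final luminescent read of ARE-luciferase activity in A549 cells.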
Potency is the fitted concentration of half-maximal effect.

SMILES	Potency
CCOc1ccccc1N1CC(c2nc3ccccc3n2CCCOc2ccc(OC)cc2)CC1=O (centres undefined)	inconclusive: 1.3 µM [activator, partial curve, poor fit]
O=C(CN1CCN(C(C(=O)Nc2cc(C(F)(F)F)ccc2Cl)c2ccccc2)CC1)NC1CC1 (centres undefined)	inconclusive: 23.1 µM [falling, single point]
CC1Cc2ccccc2N1C(=S)Nc1cccc(S(=O)(=O)N(C)C)c1 (centres undefined)	inconclusive: 25.9 µM [falling, single point]
CC(C)OCCCN1C(=O)c2[nH]nc(-c3ccccc3O)c2C1c1ccccc1F (centres undefined)	inactive
COc1ccc2nc(NC(=O)CN(c3ccc(C)cc3)S(=O)(=O)c3c(C)nn(C)c3C)sc2c1	inconclusive: 32.6 µM [falling, single point]
O=C(NCC1CCN(Cc2cccc(Cl)c2)CC1)Nc1ccc(F)c(Cl)c1	inconclusive: 18.4 µM [falling, single point]
COc1cccc(-c2csc(N3CCN(CC(=O)NNC(=O)c4ccc(Br)cc4)CC3)n2)c1	inconclusive: 11.6 µM [falling, partial curve, poor fit]
CN(CC(=O)Nc1ccc(C(N)=O)cc1)CC(=O)Nc1ccccc1Br	inconclusive: 0.206 µM [falling, partial curve, poor fit]
O=C(Nc1ccccc1-c1ccccc1)c1ccc(NC(=O)c2ccco2)cc1	inconclusive: 14.6 µM [falling, single point]
COc1ccc(-c2cc(CNS(=O)(=O)c3ccccc3)on2)cc1	inconclusive: 18.4 µM [falling, partial curve, poor fit]
CN1CCN(C2=C(Cl)C(=O)N(c3ccc(Cl)cc3)C2=O)CC1	inconclusive: 16.4 µM [activator, single point]
C/C(=N\NC(=O)c1ccco1)c1ccc(-c2ccccc2)cc1	inconclusive: 11.6 µM [activator, partial curve]
CNC(=S)N=Nc1c(O)[nH]c2ccc(C(C)C)cc12	inconclusive: 29.1 µM [falling, single point]
CCCCCC1CCC(C(=O)NCCN2CCOCC2)CC1 (centres undefined)	inactive
COc1ccc(/C=C/C(=O)Nc2ccccc2F)cc1S(=O)(=O)N1CCOCC1	inconclusive: 20.6 µM [falling, partial curve, poor fit]
Cc1nc([N+](=O)[O-])c(Br)n1Cc1ccccc1	inconclusive: 20.6 µM [falling, single point]
C(=C\c1ccccc1)/C=N/N1CCN(c2ccccn2)CC1	inconclusive: 3.66 µM [activator, full curve, poor fit]
N#C/C(=N/Nc1ccccc1F)C(=N)N1CCOCC1	inconclusive: 16.4 µM [activator, single point]
CCc1nnc(NC(=O)CSc2nnc(-c3ccc(S(=O)(=O)N4CCCC4)cc3)n2CC)s1	inactive
CCN(CC)C(=O)c1oc2ccc(S(=O)(=O)N3CCCCCC3)cc2c1C	inconclusive: 18.4 µM [falling, single point]
O=C(O)c1ccccc1NC(=O)c1cc2ccccc2oc1=O	inconclusive: 7.31 µM [activator, partial curve]
COc1ccc(-n2nc(C(=O)NCC(=O)N3CC(C)CC(C)C3)c3ccccc3c2=O)cc1 (centres undefined)	inactive

SMILES	Potency
CS(=O)(=O)c1ccc(Cl)c(NC(=O)CN2CCN(S(=O)(=O)/C=C/c3ccccc3)CC2)c1	inconclusive: 5.17 µM [falling, full curve, poor fit]
Cn1nc(C(F)(F)F)c(C#N)c1N1CCN(c2ccc(F)cc2)CC1	active: 11.6 µM
Cc1ccc(COn2nnc3ccc(S(=O)(=O)N4CCOCC4)cc32)cc1	inconclusive: 29.1 µM [falling, single point]
CCSc1nnc(-c2cccs2)o1	inconclusive: 16.4 µM [activator, single point]
CC(C)C1Cc2c(sc3[nH]c(=S)n(Cc4ccccc4)c(=O)c23)CO1 (centres undefined)	active: 16.4 µM
Cc1ccc(Nc2nc(-c3cccnc3)cs2)cc1C	inconclusive: 2.31 µM [activator, full curve]
CCCN(CCC)C(=O)CC(c1ccccc1)c1cc(C)ccc1O (centres undefined)	inconclusive: 29.1 µM [falling, single point]
COc1ccc2cc(CNc3ccc(C)cc3)c(=O)n(CC(=O)Nc3ccc(C)cc3Cl)c2c1	inconclusive: 4.11 µM [activator, full curve, poor fit]
CCn1c(=O)cc(SCC(=O)Nc2ccc(OC)c(OC)c2)c2ccccc21	active: 16.4 µM
CC(=O)Nc1ccc(N=Cc2c(O)c(C(=O)Nc3ccccc3)cc3ccccc23)cc1	inconclusive: 29.1 µM [falling, single point]
COc1ccc(OC)c(NC(=O)C(=O)NNC(=O)C23CC4CC(CC(C4)C2)C3)c1	inactive
CC(C)(C)c1ccc(C(=O)N2CCCC(c3nc4c(nnn4Cc4cccc(F)c4)c(=O)[nH]3)C2)cc1 (centres undefined)	inconclusive: 23.1 µM [falling, single point]
Cc1cc(C(=O)NNC(=O)c2sccc2C)c(C)o1	inconclusive: 16.4 µM [activator, partial curve]
CC(C)C(Cl)=NOC(=O)Nc1ccc(S(N)(=O)=O)cc1	inactive
O=C(O)c1cnn(-c2nc(-c3ccc(F)cc3)cs2)c1C(F)(F)F	inconclusive: 11.6 µM [activator, partial curve]
CC(C)n1cc(NC(=O)COc2ccccc2Cl)cn1	inconclusive: 29.1 µM [activator, single point]
Cc1ccc(-c2cn3nc(N4CCCC(C(=O)NCc5ccc(F)cc5)C4)sc3n2)cc1 (centres undefined)	inconclusive: 23.1 µM [falling, single point]
CCCN1C(=O)c2ccccc2NC1c1ccc(OC)c(COc2cccc(OC)c2)c1 (centres undefined)	inconclusive: 25.9 µM [falling, single point]
COc1ccccc1N=c1oc2cc(O)ccc2cc1C(N)=O	inconclusive: 29.1 µM [activator, single point]
NS(=O)(=O)c1ccc2nc(-c3ccccc3)c(-c3ccccc3)nc2c1	inconclusive: 4.61 µM [falling, partial curve]
O=C(CSc1nc2ccc([N+](=O)[O-])cc2s1)NCC1CCCO1 (centres undefined)	inconclusive: 29.1 µM [falling, single point]
CCOC(=O)c1cccc(NC(=O)CSc2nnc(COc3ccccc3)n2CC)c1	inconclusive: 18.4 µM [falling, partial curve]

3 entries picked at random from those above, as already listed:
SMILES	Potency
CC(C)(C)c1ccc(C(=O)N2CCCC(c3nc4c(nnn4Cc4cccc(F)c4)c(=O)[nH]3)C2)cc1 (centres undefined)	inconclusive: 23.1 µM [falling, single point]
CC(C)C1Cc2c(sc3[nH]c(=S)n(Cc4ccccc4)c(=O)c23)CO1 (centres undefined)	active: 16.4 µM
CC(C)C(Cl)=NOC(=O)Nc1ccc(S(N)(=O)=O)cc1	inactive

Next part

SMILES	Potency
CN(C)CCCN(C(=O)c1ccc(S(=O)(=O)N2CCOCC2)cc1)c1nc2ccc(F)cc2s1	inconclusive: 23.1 µM [activator, partial curve, poor fit]
O=C(c1cc(-c2ccc(Br)cc2)n[nH]1)N1CCN(S(=O)(=O)c2ccc(Cl)s2)CC1	inconclusive: 29.1 µM [activator, single point]
CN(C)c1ccc(C(C#N)c2ccccc2)nn1 (centres undefined)	inconclusive: 2.59 µM [activator, full curve]
O=c1ccnc(Nc2ccc(Cl)cc2)[nH]1	inconclusive: 29.1 µM [falling, single point]
COc1ccc(NC(=O)c2cc(C)on2)cc1	inactive
O=C1C2C3C=CC(C3)C2C(=O)N1c1cccc(-c2nc3ccccc3o2)c1 (centres undefined)	inactive
COc1ccc(Nc2ncccc2C(=O)O)cc1	inconclusive: 7.31 µM [activator, partial curve]
CN(CC(=O)Nc1c(Cl)cccc1Cl)C(=O)Cc1ccc2c(c1)CCC2	inconclusive: 32.6 µM [falling, partial curve, poor fit]
N#Cc1ccc(NC(=O)CCc2ccc(S(=O)(=O)N3CCOCC3)cc2)cc1	inconclusive: 10.3 µM [falling, partial curve]
COCC(=O)n1nc(-c2ccccc2)nc1NCc1ccc(N(C)C)cc1	inconclusive: 23.1 µM [activator, single point]
COc1cc(C)c(S(=O)(=O)N2CCOCC2)cc1C(C)C	inconclusive: 6.51 µM [falling, full curve, poor fit]
COc1ccc(NC2CCCN(C(=O)c3ccc(CSC)o3)C2)cc1OC (centres undefined)	inconclusive: 6.51 µM [activator, partial curve, poor fit]
Cc1ccc2nc(-c3ccc(SCC(=O)Nc4cc(C)on4)nc3)[nH]c2c1	inconclusive: 13 µM [activator, partial curve]
Cc1ccc(-c2nc3cccc(C)n3c2Nc2ccc3c(c2)OCO3)o1	inconclusive: 25.9 µM [falling, single point]
O=C(Cn1cnc2c(nnn2Cc2ccc(Cl)cc2)c1=O)NCc1ccco1	inconclusive: 6.51 µM [falling, single point]
COc1cccc(CNC(=O)Cn2ncn3c(cc4ccccc43)c2=O)c1	inconclusive: 2.06 µM [falling, partial curve, poor fit]
CCCCCCCC(=O)NNC(=O)c1c(O)c2ccccc2n(CC)c1=O	inactive
O=C(c1cccc(Cl)c1)c1nn(-c2ccccc2)c(=O)cc1C(F)(F)F	inconclusive: 29.1 µM [activator, single point]
O=[N+]([O-])c1ccc(/C=N/N/C(=N/c2ccccn2)c2ccccn2)cc1	inconclusive: 20.6 µM [activator, partial curve, poor fit]
Cn1c(=O)c2c(nc(N3CCOCC3)n2Cc2ccccc2F)n(C)c1=O	inactive
